{"source": "patent US20170274068A1", "about": "“IMMUNOLOGICAL REAGENT” (priority 2014, published 2017)", "key": {"B16.mOVA cells": {"tested_on": "B16.mOVA cells", "assay": "Vaccine-mediated protection against melanoma tumor challenge", "conditions": "25 μg OVA with lipopeptide 1:3 s.c., compared to other groups"}, "CD8+CD45.1+ OT-I cells": {"tested_on": "CD8+CD45.1+ OT-I cells", "assay": "In vivo proliferative T cell responses, adoptive transfer of CFSE labelled OT-I cells", "parameters": "species or system C57BL/6 mice"}}, "note": "Not every detail of the peptide structures is certain; ends, links or a residue may be inferred."}
{"compound": "CCCCCCCCCCCCCCCC(=O)OCC(CSCC(N)C(=O)N[C@@H](CO)C(=O)N[C@@H](CO)C(=O)NCCCC[C@H](NC(=O)[C@H](CCCCNC(=O)[C@H](CCCCNC(=O)[C@@H](N)CCCNC(=N)N)NC(=O)[C@@H](N)CCCNC(=N)N)NC(=O)[C@H](CCCCNC(=O)[C@@H](N)CCCNC(=N)N)NC(=O)[C@@H](N)CCCNC(=N)N)C(N)=O)OC(=O)CCCCCCCCCCCCCCC", "note": "(stereo partly drawn) [R4Pam2Cys]", "values": [{"measurement": "survival", "setting": "B16.mOVA cells", "result": "an improvement in survival rate"}, {"measurement": "division of T cells (percentage of OT-I cells which proliferated)", "setting": "CD8+CD45.1+ OT-I cells; 3 μg OVA alone or with 3-fold molar excess lipopeptide, s.c., inguinal LNs day 3", "result": "~64", "unit": "%"}, {"measurement": "fold more T cells proliferating vs OVA alone", "setting": "CD8+CD45.1+ OT-I cells; 3 μg OVA with lipopeptide, day 3", "result": "~1.5", "unit": "fold"}]}
